The whole screen tested about 400,000 compounds, of which about 13,000 (3.2%) were called active. Inconclusive means that the source gave no clear call. Such entries were picked first, then a sample of the others. The call rests on the fitted dose curve; in most records, active means well fitted cell-killing curve with a large enough effect; inconclusive means small, poorly fitted or top-dose-only effect, or effect the other way; inactive means flat fitted curve, though single readings scatter. A potency beside an inconclusive call is a rough fit, not a confirmed value.
Experiment: qHTS assay for MDR1-selective chemotherapeutics: Primary screen using the drug-selected MDR subline cells KB-V1; further: nearly all actives have a fitted effect of over 60% in size
Details: KB-V1 MDR cells viability, CellTiter-Glo, 72 h; activity change, negative = cytotoxicity: at 46.1 µM (top of the series)
Outline: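 Cytotoxicity toward P-gp-expressing KB-V1 cells was determined as loss of CellTiter-Glo luminescence after 72 h at 37 degrees C. Compounds were tested in quantitative HTS format across a concentration range, with curves fitted to normalized data.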
On the % scale 0 is the no-effect control and ±100 the full control effect; potency means the concentration at half of the fitted maximal effect.

SMILES	Potency	activity change, negative = cytotoxicity
S=C(c1cn(CCOc2ccccc2)c2ccccc12)N1CCCC1	inconclusive: 31.6 µM [cytotoxic, single point]	
CC(C)CNC(=S)Nc1ccc(Oc2ccccc2)cc1	active: 16.4 µM	
CCOC(=O)c1c(NC(=O)CCC(=O)N(CC)CC)sc2c1CC(C)(C)OC2	inconclusive: 2.59 µM [cytotoxic, partial curve, poor fit]	
O=C1CN(C(=O)c2ccccc2[N+](=O)[O-])C(c2ccccc2)c2cc(Br)ccc2N1 (stereo unspecified)	inactive	
C=CCc1ccccc1OCCNCCCOC	inconclusive: 0.0092 µM [cytotoxic, full curve, poor fit]	
Cc1ccc(CSCC(=O)Nc2cc(S(=O)(=O)N3CCOCC3)ccc2OC(C)C)cc1	inconclusive: 18.4 µM [cytotoxic, partial curve]	
COc1cc(C(C(=O)NC2CCCCC2)N(Cc2cccs2)C(=O)Cc2c[nH]c3ccccc23)cc(OC)c1OC (stereo unspecified)	active: 16.4 µM	
Cc1ccc2cc(C3CC(c4ccco4)=NN3S(=O)(=O)c3ccccc3)c(Cl)nc2c1 (stereo unspecified)	inactive	
Cc1ccc(NC(=O)COC(=O)c2cccc(C)c2[N+](=O)[O-])cc1S(=O)(=O)N1CCCCC1	inactive	
O=C(NCC(c1ccco1)N1CCCC1)c1cc2cc(Cl)ccc2o1 (stereo unspecified)	active: 9.2 µM	
OCC[C@@H]1C[C@H](O)[C@@H](O)[C@]2(OCCc3ccccc32)O1	inconclusive: 29.1 µM [rising, partial curve, poor fit]	
COc1ccc(S(=O)(=O)NC2CCc3ccccc32)cc1OC (stereo unspecified)	inactive	
CC(C)c1cc(C(F)(F)F)n2nc(C(=O)Nc3ccc(-n4cnnn4)cc3)cc2n1	inconclusive: 0.366 µM [rising, full curve]	
Nc1nonc1-n1nnc(C(=O)N/N=C/c2ccco2)c1CSc1ccc(Cl)cc1	inactive	
O=C(Oc1ccc2ccc(=O)oc2c1)c1ccc([N+](=O)[O-])cc1	inconclusive: 7.31 µM [rising, partial curve, poor fit]	
CC1(C)Cc2c(sc3nc(SCC(=O)O)nc(N)c23)CO1		inconclusive: 31.1%
CCCCC(=O)N(C)c1c(CC)nc2c(OCc3ccccc3C)cccn12	inconclusive: 4.11 µM [cytotoxic, full curve, poor fit]	
CCOc1ccc(NC(=O)c2oc3ccccc3c2NC(=O)c2ccc(OC)cc2OC)cc1	inconclusive: 29.1 µM [rising, single point]	
S=C1NCN(Cc2ccco2)CN1Cc1ccco1	inconclusive: 29.1 µM [rising, single point]	
O=C(c1ccco1)N1CCN=C1SCc1c(F)cccc1Cl	inconclusive: 0.0116 µM [cytotoxic, full curve]	
COc1ccc(N2CC(C(=O)Nc3ccc(S(=O)(=O)N4CCCC4)cc3)CC2=O)cc1 (stereo unspecified)	inconclusive: 18.4 µM [rising, partial curve, poor fit]	
CCOc1ccc(/C=N/NC(=O)c2ccccc2C)cc1CN1CC2CC(C1)c1cccc(=O)n1C2 (stereo unspecified)	inactive	
CC(=O)c1ccc2c(c1)c(C#N)c1ccccc1[n+]2[O-]	inactive	
CCOc1ccc(Br)cc1C(=O)Nc1ccc(C(=O)NCC(C)C)cc1	inconclusive: 25.9 µM [cytotoxic, partial curve, poor fit]	

SMILES	Potency	activity change, negative = cytotoxicity
CC(=O)Nc1ccc2c(c1)nc(CCN1CCC(C)CC1)n2C	inconclusive: 20 µM [rising, single point]	
Cc1ccc(S(=O)(=O)N2C[C@H]3C(=O)C[C@@H](c4ccc(Cl)cc4)N(S(=O)(=O)c4ccc(C)cc4)[C@H]3C[C@H]2c2cccc3ccccc23)cc1	inactive	
CCN1CCN(C(=O)CS(=O)(=O)Cc2nc(-c3cccc(OC)c3)oc2C)CC1	inactive	
N#Cc1ccc(-c2nc3ccc(Br)cc3c(=O)n2O)cc1	inactive	
CCOC(=O)Nc1nc(-c2ccccc2)c(C(=O)c2ccccc2)s1	active: 1.16 µM	
O=c1cc(-c2ccc(F)cc2)nc(SCc2nc(-c3ccc(Cl)cc3)no2)[nH]1	inactive	
COc1cccc(N=Nc2ccc(O)c3ncccc23)c1	inactive	
N#Cc1c(NC(=O)CSC2=NCCS2)sc2c1CCCC2	inconclusive: 23.1 µM [cytotoxic, partial curve]	
Cc1ccc(-c2ccc(/C=C3\C(=O)ON=C3c3ccccc3)o2)c([N+](=O)[O-])c1	inactive	
COc1cc(OC)c2ccc(=O)oc2c1C(CCN1CCCC1)c1ccc(N(C)C)cc1 (stereo unspecified)	inactive	
C(=C\c1ccco1)/c1nc2ccccc2[nH]1	inconclusive: 29.1 µM [cytotoxic, single point]	
Cc1ccc(NS(=O)(=O)c2cc([N+](=O)[O-])ccc2N/N=C/c2sc(N3CCOCC3)nc2-c2ccccc2)c(C)c1	inactive	
COc1ccc(CCNC(=O)C2CCCN(c3ncccn3)C2)cc1 (stereo unspecified)	inconclusive: 14.6 µM [rising, partial curve, poor fit]	
Fc1ccc(NC(=S)NCCc2ccccc2)c(F)c1F	inconclusive: 14.6 µM [cytotoxic, partial curve]	
CC1(C)CC2CC(C)(CN2C(=O)c2ccccc2)C1 (stereo unspecified)	inconclusive: 0.0065 µM [cytotoxic, full curve]	
COc1ccccc1CNC(=O)C1CC2Cn3c(nc4cc5ccccc5cc43)C2N1C (stereo unspecified)	inactive	
CCc1ccc(-c2nn(-c3ccccc3)cc2CSC(=N)N)cc1	inconclusive: 5.17 µM [cytotoxic, full curve, poor fit]	
O=C(Nc1ccc(Cl)cn1)c1cccc(S(=O)(=O)N2CCCCCC2)c1	inconclusive: 14.6 µM [cytotoxic, partial curve]	
CN(C)c1oc(/C=C/c2cccs2)nc1S(=O)(=O)c1ccccc1	inactive	
COc1cccc(NC(=O)c2ccc(-n3cccn3)nc2)c1	inconclusive: 29.1 µM [cytotoxic, single point]	
COc1cc2nc(SCc3ccc(Cl)cc3Cl)n(Cc3cccs3)c(=N)c2cc1OC	active: 6.51 µM	
COCCN(Cc1cc2cc(C)ccc2n2nnnc12)C(=S)Nc1ccc(C)cc1	inconclusive: 11.6 µM [cytotoxic, partial curve]	
COc1cccc(NC(=O)CN(C)CC(=O)Nc2ccc(C)c([N+](=O)[O-])c2)c1	inconclusive: 18.4 µM [cytotoxic, partial curve]	
O=C(CSc1ncc(-c2ccc(F)cc2)[nH]1)N1CCCCC1	inactive	

SMILES	Potency	activity change, negative = cytotoxicity
Cc1nc(Nc2ccc(Cl)cc2)c2nnn(Cc3ccccc3)c2n1	inconclusive: 13 µM [cytotoxic, single point]	
NC(=O)C1=CC2C3C=CC2(O)C(=O)OC3O1 (stereo unspecified)	inconclusive: 29.1 µM [cytotoxic, single point]	
CCCOc1ccc(N2C(=O)CC(N3CCN(c4nc5ccccc5s4)CC3)C2=O)cc1 (stereo unspecified)	inactive	
CC(=O)c1ccc(NC(=O)CSc2nc(=O)n(Cc3ccncc3)c3c2CCC3)cc1	inactive	
Cn1c(O)c(N=NC(=O)c2cccc(S(=O)(=O)N3CCCCC3)c2)c2ccccc21	inconclusive: 3.26 µM [cytotoxic, full curve, poor fit]	
CCC(C(=O)Nc1ccccc1-c1ccccc1)c1ccccc1 (stereo unspecified)	inconclusive: 23.1 µM [cytotoxic, single point]	
Cn1nc(C(F)(F)F)c(-c2cccc(C(F)(F)F)c2)c1NC(=O)c1ccco1	inactive	
CCCOc1ccc(CSc2nc3ccccc3[nH]2)cc1	inconclusive: 4.61 µM [cytotoxic, full curve, poor fit]	
Cc1cc(CNC(=O)COc2ccccc2)c2ccccc2n1	inconclusive: 11.6 µM [cytotoxic, partial curve]	
CN(C)C(CNC(=O)CCc1nc2cc(Cl)ccc2n(Cc2ccccc2)c1=O)c1ccccc1 (stereo unspecified)	inactive	
CC(=O)c1cccc(-c2ccnc3c2CC(C(=O)Nc2ccc4c(c2)OCO4)O3)c1 (stereo unspecified)	inconclusive: 20.6 µM [cytotoxic, single point]	
O=C(NCc1ccc(F)cc1)c1cc2c(s1)CS(=O)(=O)C2	inactive	
Cc1ccccc1C(=O)O/N=C/c1c(N2CCOCC2)n(C)c2ccccc12	inconclusive: 0.651 µM [cytotoxic, full curve, poor fit]	
CCOc1cc(/C=N/NC(=O)c2ccc(=O)n(C)c2)ccc1O	inactive	
CC1CCCCN1CCCNC(=O)CN1C(=O)c2cccnc2Oc2ccccc21 (stereo unspecified)	inconclusive: 23.1 µM [rising, partial curve, poor fit]	
c1ccc2c(c1)CCN(c1nc3cc4c(cc3s1)OCCO4)C2	inconclusive: 29.1 µM [cytotoxic, single point]	
CC(OC(=O)CCc1nc2ccccc2c(=O)[nH]1)C(=O)c1ccc(Br)cc1 (stereo unspecified)	inconclusive: 9.2 µM [rising, partial curve, poor fit]	
CCCC(=O)N1CCN(c2ccc(NC(=O)c3cc4ccccc4o3)cc2Cl)CC1	inconclusive: 2.91 µM [cytotoxic, full curve, poor fit]	
CCN1CCN(c2ccc(S(=O)(=O)N3CCOCC3)cc2NC(=O)/C=C/c2ccc(C)cc2)CC1	inactive	
CCOc1ccccc1/C=C(/NC(=O)c1ccccc1)C(=O)N1CCCCC1	inconclusive: 8.2 µM [cytotoxic, partial curve]	
CCN(CC)c1ccc(-c2nnc(SCC(=O)NCc3ccco3)n2C)cc1	inactive	
O=C1NC[C@@H](CCCCN2C[C@H](Cc3ccc(O)cc3)N(CCC3CCCCC3)C(=O)C2=O)N(CCC2CCCCC2)C1=O	inconclusive: 29.1 µM [rising, single point]	
COc1ccc(S(=O)(=O)c2nnn(-c3ccccc3Cl)c2N)cc1		inconclusive: -11%

Single entries from the entries so far:
Potency, CCOc1ccc(Br)cc1C(=O)Nc1ccc(C(=O)NCC(C)C)cc1 is entered as inconclusive: 25.9 µM [cytotoxic, partial curve, poor fit]
Potency, Cc1ccc(S(=O)(=O)N2C[C@H]3C(=O)C[C@@H](c4ccc(Cl)cc4)N(S(=O)(=O)c4ccc(C)cc4)[C@H]3C[C@H]2c2cccc3ccccc23)cc1 is entered as inactive
Potency, Cc1ccc(NS(=O)(=O)c2cc([N+](=O)[O-])ccc2N/N=C/c2sc(N3CCOCC3)nc2-c2ccccc2)c(C)c1 is entered as inactive

Source: PubChem BioAssay AID1347076 (National Center for Advancing Translational Sciences (NCATS), 2019)
